In the experiment the target is T1, Hyponastic Leaves 1 (HYL1) tagged with the hemagglutinin (HA) epitope (pHYL1:HYL1:HA) (Arabidopsis thaliana) (UniProt O04492).
T1 sequence: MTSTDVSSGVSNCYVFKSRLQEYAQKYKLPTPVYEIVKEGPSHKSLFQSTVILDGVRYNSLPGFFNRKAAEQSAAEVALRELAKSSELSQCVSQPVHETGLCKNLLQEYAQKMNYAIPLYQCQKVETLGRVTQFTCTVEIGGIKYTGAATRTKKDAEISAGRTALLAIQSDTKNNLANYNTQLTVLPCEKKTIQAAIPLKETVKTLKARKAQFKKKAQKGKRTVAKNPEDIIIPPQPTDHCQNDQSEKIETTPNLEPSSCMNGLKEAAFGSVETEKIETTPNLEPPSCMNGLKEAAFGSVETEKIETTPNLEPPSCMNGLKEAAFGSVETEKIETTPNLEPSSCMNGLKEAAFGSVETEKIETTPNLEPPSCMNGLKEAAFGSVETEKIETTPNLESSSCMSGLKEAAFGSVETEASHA
Put plainly: affinity purification with mass spectrometry; nuclear extract of pHYL1:HYL1:HA plants, anti-HA antibodies overnight, Dynabeads protein G; washes with low-salt, high-salt (500 mM NaCl), LiCl buffers and TE; control IPs in Col-0.

No constants are given. Whether binding was seen depends on the method and setting. Binding seen in cells or lysates may run through a third protein. A yes stands for co-enrichment or nearness to the bait. Other partners may have been found. Tags and fused reporters may be left off the sequences shown.

Consider “karyopherin enabling the transport of the cytoplasmic HYL1 (KETCH1) (from UniProt F4K2M5)”, for which the binding entry is reported as “binds”.

B1: cell division cycle 5 (CDC5) (protein, UniProt P92948 1-844)
chain: MRIMIKGGVWKNTEDEILKAAVMKYGKNQWARISSLLVRKSAKQCKARWYEWLDPSIKKTEWTREEDEKLLHLAKLLPTQWRTIAPIVGRTPSQCLERYEKLLDAACTKDENYDAADDPRKLRPGEIDPNPEAKPARPDPVDMDEDEKEMLSEARARLANTRGKKAKRKAREKQLEEARRLASLQKRRELKAAGIDGRHRKRKRKGIDYNAEIPFEKRAPAGFYDTADEDRPADQVKFPTTIEELEGKRRADVEAHLRKQDVARNKIAQRQDAPAAILQANKLNDPEVVRKRSKLMLPPPQISDHELEEIAKMGYASDLLAENEELTEGSAATRALLANYSQTPRQGMTPMRTPQRTPAGKGDAIMMEAENLARLRDSQTPLLGGENPELHPSDFTGVTPRKKEIQTPNPMLTPSMTPGGAGLTPRIGLTPSRDGSSFSMTPKGTPFRDELHINEDMDMHESAKLERQRREEARRSLRSGLTGLPQPKNEYQIVAQPPPEESEEPEEKIEEDMSDRIAREKAEEEARQQALLKKRSKVLQRDLPRPPAASLAVIRNSLLSADGDKSSVVPPTPIEVADKMVREELLQLLEHDNAKYPLDDKAEKKKGAKNRTNRSASQVLAIDDFDENELQEADKMIKEEGKFLCVSMGHENKTLDDFVEAHNTCVNDLMYFPTRSAYELSSVAGNADKVAAFQEEMENVRKKMEEDEKKAEHMKAKYKTYTKGHERRAETVWTQIEATLKQAEIGGTEVECFKALKRQEEMAASFRKKNLQEEVIKQKETESKLQTRYGNMLAMVEKAEEIMVGFRAQALKKQEDVEDSHKLKEAKLATGEEEDIAIAMEASA
On to B1, for which the binding entry was “binds”.

The values are drawn from paper PMC10269864.
